From patent publication US5945125A, “Controlled release tablet” (Temple University, priority 1996, dated 1999)
Read-outs that look alike come from different tables or passages of the source.

[1] = tablet with hydroxypropyl-beta-cyclodextrin, water without sodium lauryl sulfate (FIG. 20)

COC(=O)C1=C(C)NC(C)=C(C(=O)OC)C1c1ccccc1[N+](=O)[O-] [granulated nifedipine, nifedipine]
release profile compared with other tablets / Procardia XL (PEO tablets, in vitro release): performed similarly to a 30 mg Procardia XL™ tablet

COC(=O)C1=C(C)NC(C)=C(C(=O)OC)C1c1ccccc1[N+](=O)[O-] [nifedipine]
duration of dissolution of released drug after polymer completely dissolves (PEO tablets): approximately three hours | lag time of release (PEO tablets): approximately one hour | shape of release profile (PEO tablets): sigmoidal pattern | lag time of release (PEO tablets, listed as nifidipine): a lag time was observed | release at leveling off (equilibrium concentration) [1]: 45-47% | release up to which profile is linear (zero order) [1]: up to 30%
